# Measurements reported in PubChem BioAssay AID1259329 (Drosophila RNAi Screening Center, 2017).
# Screen: 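Vehicle-only control for knock-down screens on manganese or zinc toxicity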
# Cells: Drosophila S2R+ cells
# Reagents: long dsRNA against Drosophila genes
# Time to read-out: 5 days (4 days knock-down, then 1 day after water)
# Conditions: water added as vehicle control, no metal, one day before read-out
# Measurement: 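Luciferase-based total ATP per well, read one day after adding water without metal following 4 days knock-down, given as z-score averaged across duplicate plates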
# Direction: mean ATP z-score: higher = more total ATP, likely more viable cells
# Call rule: 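Active means the absolute value of the z-score is over 1.5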
# Here is a random part of 418 deposited reagents. 20 of them (4.8%) were called active. 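All active calls have high ATP; no reagent fell below -1.5.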 Not given: the amount of reagent, the dose of the treatment.
Gene,amplicon,mean ATP z-score,call
Pex5 (Peroxin 5),DRSC18552,-0.013,inactive
Pex5 (Peroxin 5),DRSC26136,-1.32,inactive
Pex5 (Peroxin 5),DRSC34058,-1.26,inactive
Daao2 (D-amino acid oxidase 2),DRSC02135,-0.00738,inactive
Naglu (N-acetyl-alpha-glucosaminidase),DRSC02267,0.0457,inactive
Naglu (N-acetyl-alpha-glucosaminidase),DRSC33899,-0.775,inactive
CG12268,DRSC14491,0.2,inactive
CG12268,DRSC28755,-0.0879,inactive
Vha13 (Vacuolar H[+] ATPase 13kD subunit),DRSC16895,-1.37,inactive
Ect3 (Ectoderm-expressed 3),DRSC15462,0.927,inactive
Ect3 (Ectoderm-expressed 3),DRSC25392,-0.508,inactive
Ect3 (Ectoderm-expressed 3),DRSC35713,-0.18,inactive
vsg (visgun),DRSC25227,-1.1,inactive
Mpv17 (Mitochondrial inner membrane protein MPV17),DRSC17198,-0.372,inactive
Mpv17 (Mitochondrial inner membrane protein MPV17),DRSC39911,0.188,inactive
Vps13 (Vacuolar protein sorting 13),DRSC06817,-0.253,inactive
Vps13 (Vacuolar protein sorting 13),DRSC29275,1.72,active
Vps13 (Vacuolar protein sorting 13),DRSC35042,-0.538,inactive
VhaAC39-1 (Vacuolar H[+] ATPase AC39 subunit 1),DRSC27608,-0.864,inactive
VhaAC39-1 (Vacuolar H[+] ATPase AC39 subunit 1),DRSC31237,-0.171,inactive
VhaAC39-1 (Vacuolar H[+] ATPase AC39 subunit 1),DRSC31238,-0.395,inactive
Amacr (Alpha-methylacyl-CoA racemase),DRSC03198,-0.333,inactive
Sgsh (N-sulfoglucosamine sulfohydrolase),DRSC14771,0.739,inactive
mei-9 (meiotic 9),DRSC18792,0.224,inactive
Hexo1 (Hexosaminidase 1),DRSC08663,0.456,inactive
Gba1b (Glucocerebrosidase 1b),DRSC21531,-0.429,inactive
CG15117,DRSC06539,0.477,inactive
CG15117,DRSC25471,-0.457,inactive
CG15117,DRSC34105,-0.313,inactive
CG8646,DRSC07230,0.361,inactive
Ctr1A (Copper transporter 1A),DRSC18336,0.373,inactive
Ctr1A (Copper transporter 1A),DRSC40310,1.09,inactive
Ctr1A (Copper transporter 1A),DRSC40902,-0.00957,inactive
Ctns (Cystinosin),DRSC15175,0.89,inactive
Ctns (Cystinosin),DRSC33258,-0.71,inactive
Ctns (Cystinosin),DRSC39640,0.314,inactive
Hmgcl (3-Hydroxymethyl-3-methylglutaryl-CoA lyase),DRSC02051,-0.678,inactive
Pex13 (Peroxin 13),DRSC06877,1.06,inactive
Pex13 (Peroxin 13),DRSC40208,0.871,inactive
Pex13 (Peroxin 13),DRSC40344,0.314,inactive
Vps16A (Vacuolar protein sorting 16A),DRSC16422,0.246,inactive
Vps16A (Vacuolar protein sorting 16A),DRSC36082,-0.701,inactive
Vha68-3 (Vacuolar H[+] ATPase 68kD subunit 3),DRSC02809,0.767,inactive
Vha68-3 (Vacuolar H[+] ATPase 68kD subunit 3),DRSC25742,-0.6,inactive
Vps35 (Vacuolar protein sorting 35),DRSC04519,-0.393,inactive
Vps35 (Vacuolar protein sorting 35),DRSC28790,0.725,inactive
Vps35 (Vacuolar protein sorting 35),DRSC36445,0.761,inactive
Vha14-2 (Vacuolar H[+] ATPase 14kD subunit 2),DRSC12145,0.913,inactive

Next part (13 carried over from the part before).
Gene,amplicon,mean ATP z-score,call
Ctns (Cystinosin),DRSC39640,0.314,inactive
Hmgcl (3-Hydroxymethyl-3-methylglutaryl-CoA lyase),DRSC02051,-0.678,inactive
Pex13 (Peroxin 13),DRSC06877,1.06,inactive
Pex13 (Peroxin 13),DRSC40208,0.871,inactive
Pex13 (Peroxin 13),DRSC40344,0.314,inactive
Vps16A (Vacuolar protein sorting 16A),DRSC16422,0.246,inactive
Vps16A (Vacuolar protein sorting 16A),DRSC36082,-0.701,inactive
Vha68-3 (Vacuolar H[+] ATPase 68kD subunit 3),DRSC02809,0.767,inactive
Vha68-3 (Vacuolar H[+] ATPase 68kD subunit 3),DRSC25742,-0.6,inactive
Vps35 (Vacuolar protein sorting 35),DRSC04519,-0.393,inactive
Vps35 (Vacuolar protein sorting 35),DRSC28790,0.725,inactive
Vps35 (Vacuolar protein sorting 35),DRSC36445,0.761,inactive
Vha14-2 (Vacuolar H[+] ATPase 14kD subunit 2),DRSC12145,0.913,inactive
CG17544,DRSC02624,-0.919,inactive
CG17544,DRSC25562,-0.901,inactive
Acox57D-p (acyl-Coenzyme A oxidase at 57D proximal),DRSC04560,0.268,inactive
Acox57D-p (acyl-Coenzyme A oxidase at 57D proximal),DRSC39339,0.147,inactive
VhaM9.7-b (Vacuolar H[+] ATPase M9.7 subunit b),DRSC11841,1.17,inactive
VhaM9.7-b (Vacuolar H[+] ATPase M9.7 subunit b),DRSC40199,-0.438,inactive
VhaAC39-2 (Vacuolar H[+] ATPase AC39 subunit 2),DRSC15609,-0.451,inactive
VhaAC39-2 (Vacuolar H[+] ATPase AC39 subunit 2),DRSC34799,-1.38,inactive
ATP6AP2 (ATPase H+ transporting accessory protein 2),DRSC16420,-0.231,inactive
ATP6AP2 (ATPase H+ transporting accessory protein 2),DRSC35549,-0.862,inactive
ATP6AP2 (ATPase H+ transporting accessory protein 2),DRSC39882,2.22,active
Hel25E (Helicase at 25E),DRSC28348,0.365,inactive
Hel25E (Helicase at 25E),DRSC30679,-0.28,inactive
Hel25E (Helicase at 25E),DRSC30680,1.96,active
ClC-b (Chloride channel-b),DRSC07220,-0.057,inactive
ClC-b (Chloride channel-b),DRSC37711,-0.407,inactive
ClC-b (Chloride channel-b),DRSC39990,0.345,inactive
Arc42 (Activator-recruited cofactor subunit 42),DRSC14340,-0.844,inactive
Arc42 (Activator-recruited cofactor subunit 42),DRSC31950,-0.375,inactive
Arc42 (Activator-recruited cofactor subunit 42),DRSC31951,0.307,inactive
Vps26 (Vacuolar protein sorting 26),DRSC23556,0.98,inactive
Vps26 (Vacuolar protein sorting 26),DRSC37369,-0.174,inactive
Vps45 (Vacuolar protein sorting 45),DRSC16398,0.959,inactive
Vps45 (Vacuolar protein sorting 45),DRSC34819,-0.514,inactive
Vps45 (Vacuolar protein sorting 45),DRSC37502,0.467,inactive
ClC-a (Chloride channel-a),DRSC14947,0.275,inactive
ClC-a (Chloride channel-a),DRSC14948,0.866,inactive
ClC-a (Chloride channel-a),DRSC16142,-0.314,inactive
Gal (beta galactosidase),DRSC03134,0.162,inactive
Gal (beta galactosidase),DRSC24562,1.05,inactive
LManI (Lysosomal alpha-mannosidase I),DRSC24754,-0.469,inactive
LManI (Lysosomal alpha-mannosidase I),DRSC39016,0.24,inactive
LManI (Lysosomal alpha-mannosidase I),DRSC41065,-0.407,inactive
ACOX1 (acyl-CoA oxidase 1),DRSC05941,1.02,inactive
ACOX1 (acyl-CoA oxidase 1),DRSC24604,-1.16,inactive
CG3376,DRSC04362,0.264,inactive
CG3376,DRSC26489,1.87,active
Dci (Dodecenoyl-CoA delta-isomerase),DRSC08360,-0.0939,inactive
Dci (Dodecenoyl-CoA delta-isomerase),DRSC28929,-1.13,inactive
"Rgk1 (Rad, Gem/Kir family member 1)",DRSC05785,0.116,inactive
"Rgk1 (Rad, Gem/Kir family member 1)",DRSC23535,0.687,inactive
"Rgk1 (Rad, Gem/Kir family member 1)",DRSC37293,0.535,inactive
CG4860,DRSC21755,-0.204,inactive
Cat (Catalase),DRSC11110,-0.232,inactive
Cat (Catalase),DRSC24077,-0.575,inactive
Cat (Catalase),DRSC38942,-0.132,inactive
betaGlu (beta glucuronidase),DRSC24889,0.284,inactive
betaGlu (beta glucuronidase),DRSC39080,1.47,inactive
betaGlu (beta glucuronidase),DRSC41080,-1.31,inactive
Sod2 (Superoxide dismutase 2 (Mn)),DRSC07554,0.649,inactive
Sod2 (Superoxide dismutase 2 (Mn)),DRSC27050,0.046,inactive
Pex11ab (Peroxin 11a/b),DRSC07145,0.248,inactive
Abcd3 (ATP binding cassette subfamily D member 3),DRSC29341,-0.121,inactive
Abcd3 (ATP binding cassette subfamily D member 3),DRSC41060,-0.786,inactive
Abcd3 (ATP binding cassette subfamily D member 3),DRSC41168,-1.47,inactive
VhaM9.7-a (Vacuolar H[+] ATPase M9.7 subunit a),DRSC08289,-1.45,inactive
VhaM9.7-a (Vacuolar H[+] ATPase M9.7 subunit a),DRSC28340,0.935,inactive
Acsf2 (Acyl-CoA synthetase family member 2),DRSC02172,0.107,inactive
Acsf2 (Acyl-CoA synthetase family member 2),DRSC27832,0.848,inactive
CROT (Carnitine O-octanoyltransferase),DRSC27733,1.72,active
CROT (Carnitine O-octanoyltransferase),DRSC32670,-0.367,inactive
CROT (Carnitine O-octanoyltransferase),DRSC32671,-1.18,inactive
